From article PMC11658772
No constants are given. Whether binding was seen depends on the method and setting. Binding seen in cells or lysates may run through a third protein. Some entries that bind do so weakly or less than the wild type. Tags and fused reporters may be left off the sequences shown.

Tests used:
[1] = target: T1, MSL1^GS-3xHA (K3S R4S F5G K6S W7G) (Drosophila melanogaster) (UniProt P50535); experiment: co-IP; Drosophila S2 cells co-transfected with MSL1*-3xHA and MSL2-3xFLAG, 48 hr; extract made with 420 mM NaCl; immunoprecipitation with anti-FLAG, anti-HA or mouse IgG (negative control) magnetic beads in buffer-150 (20 mM Tris-HCl pH 7.4, 150 mM NaCl, 10 mM MgCl2, 0.1% NP-40), overnight at 4 °C; immunoblot with anti-FLAG-HRP
T1 sequence: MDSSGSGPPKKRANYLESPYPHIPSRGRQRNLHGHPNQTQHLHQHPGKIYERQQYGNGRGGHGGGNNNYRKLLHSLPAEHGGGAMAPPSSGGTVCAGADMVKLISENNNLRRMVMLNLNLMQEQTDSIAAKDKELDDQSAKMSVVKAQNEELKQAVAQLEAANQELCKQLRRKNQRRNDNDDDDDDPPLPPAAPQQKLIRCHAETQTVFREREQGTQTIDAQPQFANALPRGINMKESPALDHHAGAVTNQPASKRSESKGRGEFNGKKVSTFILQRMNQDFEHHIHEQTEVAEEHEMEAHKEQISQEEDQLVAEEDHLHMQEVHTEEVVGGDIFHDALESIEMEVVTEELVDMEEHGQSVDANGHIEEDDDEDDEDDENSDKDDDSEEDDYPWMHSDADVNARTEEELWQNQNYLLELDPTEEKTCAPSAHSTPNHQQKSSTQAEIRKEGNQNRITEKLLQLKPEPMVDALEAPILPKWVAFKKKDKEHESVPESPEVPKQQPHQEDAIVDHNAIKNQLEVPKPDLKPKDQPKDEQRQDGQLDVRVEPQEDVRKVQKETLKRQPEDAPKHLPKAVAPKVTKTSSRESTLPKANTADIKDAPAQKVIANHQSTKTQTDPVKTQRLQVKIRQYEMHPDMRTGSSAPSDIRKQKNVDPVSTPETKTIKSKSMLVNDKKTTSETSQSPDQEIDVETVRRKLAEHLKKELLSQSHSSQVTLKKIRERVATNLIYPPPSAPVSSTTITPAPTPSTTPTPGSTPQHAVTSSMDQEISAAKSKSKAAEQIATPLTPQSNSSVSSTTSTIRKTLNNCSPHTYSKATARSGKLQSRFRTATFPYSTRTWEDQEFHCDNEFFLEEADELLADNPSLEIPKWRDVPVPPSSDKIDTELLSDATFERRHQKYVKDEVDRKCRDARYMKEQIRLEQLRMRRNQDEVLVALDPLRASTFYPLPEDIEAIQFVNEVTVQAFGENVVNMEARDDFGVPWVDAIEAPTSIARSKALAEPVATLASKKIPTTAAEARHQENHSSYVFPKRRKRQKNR

[2] = target: T2, MSL1^Δ8-20-3xHA (Drosophila melanogaster) (UniProt P50535); experiment: as above
T2 sequence: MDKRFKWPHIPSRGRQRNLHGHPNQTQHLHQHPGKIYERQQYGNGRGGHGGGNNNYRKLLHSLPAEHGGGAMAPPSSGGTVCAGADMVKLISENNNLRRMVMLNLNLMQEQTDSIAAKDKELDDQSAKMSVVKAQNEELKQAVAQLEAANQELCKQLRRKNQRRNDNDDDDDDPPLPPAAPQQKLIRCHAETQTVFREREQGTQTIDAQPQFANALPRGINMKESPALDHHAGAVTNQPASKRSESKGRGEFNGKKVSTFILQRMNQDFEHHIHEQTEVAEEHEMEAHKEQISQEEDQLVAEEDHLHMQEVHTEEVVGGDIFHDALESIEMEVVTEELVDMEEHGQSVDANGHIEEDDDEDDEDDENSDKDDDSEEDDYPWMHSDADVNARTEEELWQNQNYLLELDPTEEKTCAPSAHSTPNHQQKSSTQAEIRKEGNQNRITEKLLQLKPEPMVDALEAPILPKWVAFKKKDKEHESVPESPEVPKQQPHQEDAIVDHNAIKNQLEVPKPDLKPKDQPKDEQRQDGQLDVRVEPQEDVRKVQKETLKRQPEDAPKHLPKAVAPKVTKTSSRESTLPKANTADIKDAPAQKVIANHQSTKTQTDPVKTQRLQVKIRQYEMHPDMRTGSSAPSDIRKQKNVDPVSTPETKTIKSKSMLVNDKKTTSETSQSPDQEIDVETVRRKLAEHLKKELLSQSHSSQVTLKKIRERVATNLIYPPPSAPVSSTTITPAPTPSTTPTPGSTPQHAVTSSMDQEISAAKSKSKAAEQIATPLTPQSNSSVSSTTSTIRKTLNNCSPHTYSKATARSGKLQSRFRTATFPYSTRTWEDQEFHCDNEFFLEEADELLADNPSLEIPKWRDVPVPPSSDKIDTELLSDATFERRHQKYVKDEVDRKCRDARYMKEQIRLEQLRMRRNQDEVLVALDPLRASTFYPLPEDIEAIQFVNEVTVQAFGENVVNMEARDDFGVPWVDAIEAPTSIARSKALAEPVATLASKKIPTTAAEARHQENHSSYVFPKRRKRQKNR

B1: MSL2-3xFLAG (protein, UniProt P50534 1-773)
chain: MAQTAYLKVTRIAMRSASNLSKRRVEELNSGLGELRQLLSCVVCCQLLVDPYSPKGKRCQHNVCRLCLRGKKHLFPSCTQCEGCSDFKTYEENRMMAAQLLCYKTLCVHLLHSALFGELAGMRPQVARELVPRIKLPPKTTQEFIREGSNISDTFDIFLPQPDLPFLKDMPTSLPAETPPTSAVTTPELPYDHHLNISDIEAEAAATAEQGHFSPLPLLPTGSRMGMLSHAGQIVIATESSESGFMDQAWTDQVDLSGTVSVSKYTNSGNNFAVSYVMPTSATTKFDPQELQIGQVVQMADSTQLAVLAAVEETVETSTQLTVLSTTVEETVETSTQLEVLTSAEEPNEISDQLANLQVEESDEALVEETVEEAEGTSIPSEVVAEHMEEDQHLDVHTSQSPTQTEMEEAVEEHVATKTQLGHVQTELQDAESLQKDFEDAKAAAEEAKEKEKDLHAISAELQKEDSDEPTLKRKRTRTLKASQAAKIEPVPSEVKTKVQSGKGALRRIRGKDKEEKVKPPKPKCRCGISGSSNTLTTCRNSRCPCYKSYNSCAGCHCVCCKNPHKEDYVESDEDDDLEDFEMPKDVPEPMTQSEEPVVAEPRQEENSMAPPDSSAPISLVPLNNLQQSQHPLVLVQNEKGEYQGFNIFQGSKPLDPVTVGFTIRVQLQHTDGFGSLPQYAYIMPTIDPPNPPAPSLSPPPPPAPDREVIEPPAKKFRTSRTRRGRANFSALDTVDELVSGGSRSNSAAGDRSSATDNAHSLFEEIMSGSDDL
Question: Which binding [1] does the source give for B1 here?
Answer: binds

Question: And the binding [2]?
Answer: binds
